Results: the supplement of paper PMC12819154, “High-throughput peptide-centric local stability assay extends protein–ligand identification to membrane proteins, tissues and bacteria” (Nature Structural & Molecular Biology, 2025)
The list shows a part of the results. Small differences around the control level are noise.

Protein sequences, listed by entry. Tags and fused reporters are not part of them. Lines headed by an entry give the natural chain unless they say otherwise; changes in a name come on top.
UniProt P50219: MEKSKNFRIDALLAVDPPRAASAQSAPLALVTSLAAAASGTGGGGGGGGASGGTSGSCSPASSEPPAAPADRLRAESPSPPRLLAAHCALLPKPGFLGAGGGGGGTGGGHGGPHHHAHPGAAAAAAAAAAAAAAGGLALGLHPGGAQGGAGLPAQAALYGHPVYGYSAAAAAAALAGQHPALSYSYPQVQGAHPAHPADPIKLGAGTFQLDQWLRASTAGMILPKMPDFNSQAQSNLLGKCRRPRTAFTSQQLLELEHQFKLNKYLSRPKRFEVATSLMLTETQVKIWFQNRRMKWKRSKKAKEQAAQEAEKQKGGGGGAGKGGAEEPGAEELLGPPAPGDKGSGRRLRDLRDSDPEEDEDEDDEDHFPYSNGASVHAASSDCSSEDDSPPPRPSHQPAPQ
UniProt P48378: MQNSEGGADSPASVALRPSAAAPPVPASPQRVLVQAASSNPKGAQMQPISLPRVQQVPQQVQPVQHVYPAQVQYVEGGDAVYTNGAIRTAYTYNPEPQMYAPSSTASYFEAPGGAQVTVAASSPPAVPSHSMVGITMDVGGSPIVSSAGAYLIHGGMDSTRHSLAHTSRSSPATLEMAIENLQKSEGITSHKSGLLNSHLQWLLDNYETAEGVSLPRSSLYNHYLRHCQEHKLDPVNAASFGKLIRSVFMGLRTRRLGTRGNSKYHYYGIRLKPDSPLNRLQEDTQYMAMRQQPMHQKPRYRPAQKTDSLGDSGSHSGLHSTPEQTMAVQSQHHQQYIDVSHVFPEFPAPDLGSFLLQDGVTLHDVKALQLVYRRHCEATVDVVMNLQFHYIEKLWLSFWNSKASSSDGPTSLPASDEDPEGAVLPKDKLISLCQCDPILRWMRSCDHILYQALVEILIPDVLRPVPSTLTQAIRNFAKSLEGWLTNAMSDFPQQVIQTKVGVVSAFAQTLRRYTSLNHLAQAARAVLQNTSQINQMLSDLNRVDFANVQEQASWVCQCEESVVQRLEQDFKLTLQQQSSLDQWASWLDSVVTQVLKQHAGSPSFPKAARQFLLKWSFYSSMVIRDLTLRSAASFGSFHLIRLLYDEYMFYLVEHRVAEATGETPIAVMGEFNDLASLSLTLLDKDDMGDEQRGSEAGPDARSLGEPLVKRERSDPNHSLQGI
UniProt P49902: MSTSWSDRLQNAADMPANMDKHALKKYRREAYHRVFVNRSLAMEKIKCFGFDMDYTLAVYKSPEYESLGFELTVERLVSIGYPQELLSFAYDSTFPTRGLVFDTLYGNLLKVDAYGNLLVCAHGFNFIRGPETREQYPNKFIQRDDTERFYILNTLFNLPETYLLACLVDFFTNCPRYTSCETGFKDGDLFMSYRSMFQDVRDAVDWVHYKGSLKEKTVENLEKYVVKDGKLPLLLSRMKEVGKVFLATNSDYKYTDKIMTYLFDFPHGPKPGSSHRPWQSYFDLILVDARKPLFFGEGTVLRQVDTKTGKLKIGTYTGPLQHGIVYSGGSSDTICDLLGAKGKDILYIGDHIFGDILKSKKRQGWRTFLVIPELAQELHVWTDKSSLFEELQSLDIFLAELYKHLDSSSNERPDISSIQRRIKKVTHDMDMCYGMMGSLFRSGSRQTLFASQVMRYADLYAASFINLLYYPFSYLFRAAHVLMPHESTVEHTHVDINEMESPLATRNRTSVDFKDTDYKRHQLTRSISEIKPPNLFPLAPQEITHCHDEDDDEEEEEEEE
UniProt P51948: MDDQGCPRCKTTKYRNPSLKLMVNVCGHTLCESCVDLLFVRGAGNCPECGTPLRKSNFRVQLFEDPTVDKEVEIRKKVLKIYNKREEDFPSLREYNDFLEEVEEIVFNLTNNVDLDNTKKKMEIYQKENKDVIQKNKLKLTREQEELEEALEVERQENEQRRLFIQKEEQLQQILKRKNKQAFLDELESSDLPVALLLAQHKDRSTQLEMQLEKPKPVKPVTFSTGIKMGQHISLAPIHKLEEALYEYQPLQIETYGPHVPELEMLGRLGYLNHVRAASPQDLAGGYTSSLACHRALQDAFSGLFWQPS
UniProt P53384: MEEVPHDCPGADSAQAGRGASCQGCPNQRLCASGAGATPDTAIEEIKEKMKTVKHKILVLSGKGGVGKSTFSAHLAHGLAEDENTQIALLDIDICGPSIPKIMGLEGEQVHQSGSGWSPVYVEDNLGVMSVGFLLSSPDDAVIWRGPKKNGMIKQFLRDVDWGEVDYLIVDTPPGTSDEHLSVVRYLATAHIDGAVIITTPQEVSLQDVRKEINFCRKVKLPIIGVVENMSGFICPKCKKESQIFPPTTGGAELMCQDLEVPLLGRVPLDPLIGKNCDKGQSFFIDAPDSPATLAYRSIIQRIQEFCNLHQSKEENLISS
UniProt P52597: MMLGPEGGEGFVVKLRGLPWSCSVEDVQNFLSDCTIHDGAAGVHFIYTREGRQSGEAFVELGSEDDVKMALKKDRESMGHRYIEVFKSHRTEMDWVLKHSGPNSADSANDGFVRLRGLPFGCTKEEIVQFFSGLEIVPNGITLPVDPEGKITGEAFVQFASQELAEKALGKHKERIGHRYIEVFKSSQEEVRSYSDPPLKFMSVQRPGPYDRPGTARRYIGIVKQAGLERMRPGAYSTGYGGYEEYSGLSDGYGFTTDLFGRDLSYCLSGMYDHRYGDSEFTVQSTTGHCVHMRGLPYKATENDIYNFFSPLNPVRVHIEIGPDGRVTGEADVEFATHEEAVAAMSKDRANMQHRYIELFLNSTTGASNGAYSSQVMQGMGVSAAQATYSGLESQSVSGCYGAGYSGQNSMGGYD
UniProt P53355: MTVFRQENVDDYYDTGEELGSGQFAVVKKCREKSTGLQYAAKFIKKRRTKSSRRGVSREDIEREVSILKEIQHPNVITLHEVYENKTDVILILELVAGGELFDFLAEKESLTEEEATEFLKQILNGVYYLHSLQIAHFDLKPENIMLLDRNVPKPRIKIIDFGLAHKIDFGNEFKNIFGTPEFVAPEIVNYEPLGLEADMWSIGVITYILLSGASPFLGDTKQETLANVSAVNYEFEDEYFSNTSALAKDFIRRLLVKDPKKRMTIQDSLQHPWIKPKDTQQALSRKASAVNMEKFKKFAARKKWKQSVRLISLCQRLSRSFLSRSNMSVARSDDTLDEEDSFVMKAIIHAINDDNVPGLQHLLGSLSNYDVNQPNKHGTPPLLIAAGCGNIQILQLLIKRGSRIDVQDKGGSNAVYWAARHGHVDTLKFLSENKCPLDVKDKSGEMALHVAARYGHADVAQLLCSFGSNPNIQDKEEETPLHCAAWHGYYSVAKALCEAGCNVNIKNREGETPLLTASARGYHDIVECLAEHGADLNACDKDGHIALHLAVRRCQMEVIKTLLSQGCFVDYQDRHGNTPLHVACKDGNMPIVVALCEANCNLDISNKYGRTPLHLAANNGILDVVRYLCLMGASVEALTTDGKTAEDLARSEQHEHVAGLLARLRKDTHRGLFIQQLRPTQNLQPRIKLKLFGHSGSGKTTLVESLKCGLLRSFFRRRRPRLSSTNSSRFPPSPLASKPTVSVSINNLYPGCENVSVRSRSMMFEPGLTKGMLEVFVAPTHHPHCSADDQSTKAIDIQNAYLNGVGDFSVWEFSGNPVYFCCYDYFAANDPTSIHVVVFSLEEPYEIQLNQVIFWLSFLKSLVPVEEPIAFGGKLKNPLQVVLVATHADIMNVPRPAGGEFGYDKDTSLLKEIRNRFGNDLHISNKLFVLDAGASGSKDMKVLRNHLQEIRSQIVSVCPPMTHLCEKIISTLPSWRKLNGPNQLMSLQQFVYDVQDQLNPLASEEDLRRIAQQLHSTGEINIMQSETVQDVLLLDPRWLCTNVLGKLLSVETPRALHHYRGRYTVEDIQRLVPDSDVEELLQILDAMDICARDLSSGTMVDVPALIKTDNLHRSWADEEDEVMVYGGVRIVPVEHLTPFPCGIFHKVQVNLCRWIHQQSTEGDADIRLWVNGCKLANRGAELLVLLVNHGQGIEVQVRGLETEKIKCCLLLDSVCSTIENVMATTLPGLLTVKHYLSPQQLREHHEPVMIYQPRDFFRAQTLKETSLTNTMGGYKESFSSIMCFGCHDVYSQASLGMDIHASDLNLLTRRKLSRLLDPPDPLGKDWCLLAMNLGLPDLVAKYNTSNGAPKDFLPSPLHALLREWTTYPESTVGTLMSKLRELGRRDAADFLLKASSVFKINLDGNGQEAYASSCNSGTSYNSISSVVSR
UniProt P52333: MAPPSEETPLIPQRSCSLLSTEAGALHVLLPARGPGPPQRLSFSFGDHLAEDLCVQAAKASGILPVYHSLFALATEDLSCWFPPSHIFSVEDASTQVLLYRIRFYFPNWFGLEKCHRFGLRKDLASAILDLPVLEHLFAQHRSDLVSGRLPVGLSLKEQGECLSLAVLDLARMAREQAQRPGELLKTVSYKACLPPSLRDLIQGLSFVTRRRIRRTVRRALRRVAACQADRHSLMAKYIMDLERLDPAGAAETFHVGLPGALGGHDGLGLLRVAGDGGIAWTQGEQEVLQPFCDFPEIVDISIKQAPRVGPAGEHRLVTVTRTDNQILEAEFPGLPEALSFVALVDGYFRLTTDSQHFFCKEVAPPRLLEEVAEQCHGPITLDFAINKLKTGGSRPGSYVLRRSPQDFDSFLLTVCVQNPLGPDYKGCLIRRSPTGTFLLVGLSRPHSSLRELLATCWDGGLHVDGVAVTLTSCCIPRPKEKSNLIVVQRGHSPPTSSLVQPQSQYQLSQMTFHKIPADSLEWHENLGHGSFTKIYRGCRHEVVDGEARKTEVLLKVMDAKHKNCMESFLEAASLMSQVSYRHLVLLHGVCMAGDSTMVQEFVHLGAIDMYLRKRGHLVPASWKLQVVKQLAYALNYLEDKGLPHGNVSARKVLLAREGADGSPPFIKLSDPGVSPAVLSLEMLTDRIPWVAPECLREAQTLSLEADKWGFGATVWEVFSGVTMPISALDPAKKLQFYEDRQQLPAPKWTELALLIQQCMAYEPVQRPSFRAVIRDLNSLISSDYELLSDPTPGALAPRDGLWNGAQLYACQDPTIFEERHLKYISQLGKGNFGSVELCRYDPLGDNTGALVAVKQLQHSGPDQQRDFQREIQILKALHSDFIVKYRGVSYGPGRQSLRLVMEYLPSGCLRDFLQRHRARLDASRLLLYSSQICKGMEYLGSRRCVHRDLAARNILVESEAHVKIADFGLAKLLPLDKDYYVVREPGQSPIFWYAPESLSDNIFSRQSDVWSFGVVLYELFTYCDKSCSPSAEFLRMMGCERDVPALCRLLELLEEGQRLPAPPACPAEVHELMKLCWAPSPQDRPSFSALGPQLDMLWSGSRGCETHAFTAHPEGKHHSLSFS
UniProt P51659: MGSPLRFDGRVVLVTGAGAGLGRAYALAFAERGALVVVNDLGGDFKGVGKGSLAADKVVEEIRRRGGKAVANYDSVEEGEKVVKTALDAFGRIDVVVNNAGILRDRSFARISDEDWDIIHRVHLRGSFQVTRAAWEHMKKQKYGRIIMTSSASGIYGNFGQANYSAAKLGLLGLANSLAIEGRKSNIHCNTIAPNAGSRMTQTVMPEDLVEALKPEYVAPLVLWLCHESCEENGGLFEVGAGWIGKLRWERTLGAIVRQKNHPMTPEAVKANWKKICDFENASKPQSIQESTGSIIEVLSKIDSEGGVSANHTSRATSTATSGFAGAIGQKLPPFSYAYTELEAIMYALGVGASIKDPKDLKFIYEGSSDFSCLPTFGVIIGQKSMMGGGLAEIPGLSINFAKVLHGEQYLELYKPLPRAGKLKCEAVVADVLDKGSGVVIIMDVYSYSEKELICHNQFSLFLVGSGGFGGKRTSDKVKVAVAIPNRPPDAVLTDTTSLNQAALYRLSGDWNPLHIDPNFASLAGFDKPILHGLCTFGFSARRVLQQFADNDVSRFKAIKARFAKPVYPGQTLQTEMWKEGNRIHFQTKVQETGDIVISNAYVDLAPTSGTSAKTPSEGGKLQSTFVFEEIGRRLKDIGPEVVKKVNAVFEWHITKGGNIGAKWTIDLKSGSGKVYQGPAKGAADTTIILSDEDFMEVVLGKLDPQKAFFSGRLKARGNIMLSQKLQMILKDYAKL
UniProt P51153: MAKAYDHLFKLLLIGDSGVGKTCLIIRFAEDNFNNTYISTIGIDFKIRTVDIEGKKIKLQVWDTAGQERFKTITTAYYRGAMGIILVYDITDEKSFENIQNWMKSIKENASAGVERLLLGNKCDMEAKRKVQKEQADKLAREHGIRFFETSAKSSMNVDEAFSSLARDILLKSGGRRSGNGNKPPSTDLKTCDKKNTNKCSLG
UniProt P47985: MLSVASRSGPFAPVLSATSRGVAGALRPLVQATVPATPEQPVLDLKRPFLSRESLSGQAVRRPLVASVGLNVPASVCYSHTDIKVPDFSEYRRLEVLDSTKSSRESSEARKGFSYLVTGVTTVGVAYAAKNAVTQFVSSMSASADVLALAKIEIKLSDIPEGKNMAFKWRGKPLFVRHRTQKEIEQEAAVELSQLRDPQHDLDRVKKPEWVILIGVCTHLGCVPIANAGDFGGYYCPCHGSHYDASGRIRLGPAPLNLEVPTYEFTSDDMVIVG

compound: CN[C@@H]1C[C@H]2O[C@@](C)([C@@H]1OC)n1c3ccccc3c3c4c(c5c6ccccc6n2c5c31)C(=O)NC4 [staurosporine]; assay: log2 fold change of tryptic peptide abundance, ligand vs vehicle (limited proteolysis) (log2 ratio); higher = more trypsin-susceptible (destabilized); conditions: ligand concentration: 20 uM; sample: K562 cleared lysate; digestion: 4 min, 22 C (HT-PELSA RT4min, Orbitrap Astral)

Q: Which log2 fold change does the source give for “RPS10 (peptide sequence: IAIYELLFKEGVMVAKK, peptide start residue: 9) (UniProt P46783)” here?
A: 0.383

Q: With “MNX1 (peptide sequence: ASTAGMILPK, peptide start residue: 216) (UniProt P50219)” as the target, how does the log2 fold change read?
A: 0.249

Q: “CRKL (peptide sequence: HGMFLVR, peptide start residue: 33) (UniProt P46109)” was tested. Which log2 fold change did it give?
A: 0.22

Q: “BRCC3 (peptide sequence: VVGWYHSHPHITVWPSHVDVR, peptide start residue: 117) (UniProt P46736)” was tested. Which log2 fold change did it give?
A: -0.602

Q: How did the log2 fold change turn out when “RPL29 (peptide sequence: AQAAAPASVPAQAPK, peptide start residue: 135) (UniProt P47914)” was run?
A: -0.2

Q: How did the log2 fold change turn out when “ZNF131 (peptide sequence: SHSTESFKCEICNKR, peptide start residue: 282) (UniProt P52739)” was run?
A: -0.435

Q: With “RXRG (peptide sequence: ILEAELAVEPK, peptide start residue: 235) (UniProt P48443)” as the target, how does the log2 fold change read?
A: -0.238

Q: With “MRPL19 (peptide sequence: FLSPEFIPR, peptide start residue: 75) (UniProt P49406)” as the target, how does the log2 fold change read?
A: -0.0728

Q: How did the log2 fold change turn out when “UniProt P54368 (peptide sequence: WCSDAPHPPLKIPGGR, peptide start residue: 66)” was run?
A: 0.197

Q: Which log2 fold change does the source give for “NEDD4 (peptide sequence: LLQFVTGTSR, peptide start residue: 898) (UniProt P46934)” here?
A: -0.356

Q: How did the log2 fold change turn out when “RFX2 (peptide sequence: VLVQAASSNPK, peptide start residue: 32) (UniProt P48378)” was run?
A: 0.173

Q: How did the log2 fold change turn out when “PTDSS1 (peptide sequence: SKVTNGVGKK, peptide start residue: 464) (UniProt P48651)” was run?
A: -0.715

Q: With “AARS (peptide sequence: LVSVLQNK, peptide start residue: 247) (UniProt P49588)” as the target, how does the log2 fold change read?
A: 0.243

Q: How did the log2 fold change turn out when “ANXA11 (peptide sequence: NTPAFFAER, peptide start residue: 431) (UniProt P50995)” was run?
A: 0.217

Q: How did the log2 fold change turn out when “NT5C2 (peptide sequence: HLDSSSNERPDISSIQR, peptide start residue: 405) (UniProt P49902)” was run?
A: 0.282

Q: With “MNAT1 (peptide sequence: GAGNCPECGTPLRK, peptide start residue: 42) (UniProt P51948)” as the target, how does the log2 fold change read?
A: 0.274

Q: For “SUB1 (peptide sequence: QVAPEKPVK, peptide start residue: 30) (UniProt P53999)”, which log2 fold change is on record?
A: 0.173

Q: For “NUBP1 (peptide sequence: VKLPIIGVVENMSGFICPKCK, peptide start residue: 219) (UniProt P53384)”, which log2 fold change is on record?
A: -0.566

Q: For “HNRNPF (peptide sequence: DLSYCLSGMYDHR, peptide start residue: 263) (UniProt P52597)”, which log2 fold change is on record?
A: -0.187

Q: For “DAPK1 (peptide sequence: LISLCQR, peptide start residue: 311) (UniProt P53355)”, which log2 fold change is on record?
A: -0.275

Q: Which log2 fold change does the source give for “SULT1A1 (peptide sequence: LLKTHLPLALLPQTLLDQK, peptide start residue: 104) (UniProt P50225)” here?
A: -0.564

Q: How did the log2 fold change turn out when “UniProt P48047 (peptide sequence: LVRPPVQVYGIEGR, peptide start residue: 27)” was run?
A: 0.344

Q: Which log2 fold change does the source give for “AIF1 (peptide sequence: YSSDEDLPSKLEGFKEK, peptide start residue: 37) (UniProt P55008)” here?
A: 0.408

Q: Which log2 fold change does the source give for “JAK3 (peptide sequence: KLQFYEDR, peptide start residue: 762) (UniProt P52333)” here?
A: 0.143

Q: With “FNTA (peptide sequence: DVYDYFR, peptide start residue: 98) (UniProt P49354)” as the target, how does the log2 fold change read?
A: 0.2

Q: With “RPL34 (peptide sequence: AFLIEEQKIVVK, peptide start residue: 94) (UniProt P49207)” as the target, how does the log2 fold change read?
A: 0.357

Q: Which log2 fold change does the source give for “CLCN3 (peptide sequence: MESEQLFHR, peptide start residue: 1) (UniProt P51790)” here?
A: -0.105

Q: For “HSD17B4 (peptide sequence: QKNHPMTPEAVK, peptide start residue: 259) (UniProt P51659)”, which log2 fold change is on record?
A: 0.462

Q: Which log2 fold change does the source give for “RAB13 (peptide sequence: SFENIQNWMK, peptide start residue: 95) (UniProt P51153)” here?
A: 0.646

Q: For “NASP (peptide sequence: VESLDVDSEAKK, peptide start residue: 34) (UniProt P49321)”, which log2 fold change is on record?
A: -0.239

Q: How did the log2 fold change turn out when “CD97 (peptide sequence: YSEFTSTTSGTGHNQTR, peptide start residue: 810) (UniProt P48960)” was run?
A: -0.124

Q: How did the log2 fold change turn out when “ALDH9A1 (peptide sequence: VSFTGSVPTGMK, peptide start residue: 228) (UniProt P49189)” was run?
A: 0.289

Q: Which log2 fold change does the source give for “ETV1 (peptide sequence: TEGCMFEKGPR, peptide start residue: 289) (UniProt P50549)” here?
A: 0.674

Q: “UQCRFS1 (peptide sequence: EIEQEAAVELSQLR, peptide start residue: 183) (UniProt P47985)” was tested. Which log2 fold change did it give?
A: 0.138

Q: Which log2 fold change does the source give for “RAB5C (peptide sequence: GVDLQENNPASR, peptide start residue: 199) (UniProt P51148)” here?
A: -0.0601

Q: Which log2 fold change does the source give for “STAR (peptide sequence: LTWLLSIDLK, peptide start residue: 239) (UniProt P49675)” here?
A: 0.494
